The values below come from the supplement of paper PMC10689618.

Some of the results follow. Many values rest on one well or one pass, so single values are uncertain.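 Primary human fetal astrocytes engulfed labelled rat cortical synaptosomes, measured as a red/green ratio corrected for calcein live-cell signal and scaled to the plate median. Toxicity meant calcein falling over 30%; decreased phagocytosis meant below 70% of median above 5 µM.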

In this test the test system is Human fetal astrocytes. Kind of test: synaptosome phagocytosis (pHrodo/calcein intensity ratio) relative to plate median of data wells; higher = more phagocytosis. To be noted: 2.78 µM; 24 h.
For `CCOC(=O)[C@H](CCc1ccccc1)N[C@@H](C)C(=O)N1CCC[C@H]1C(=O)O`, the synaptosome phagocytosis was 94.1%.
The figure for `COC(=O)C[C@H]1C(C)(C)[C@@H](O)[C@@H]2CC3=C4C=C(OC)O[C@@H](c5ccoc5)[C@]4(C)CCC3[C@@]1(C)C2=O` (stereo partly drawn) [3-DEOXO-3beta-HYDROXYMEXICANOLIDE 16-ENOL ETHER] is 124%; for `CN1CCN(C(c2ccccc2)c2ccccc2)CC1` it is 112%.
Next, `N[C@@H](CCC(=O)N[C@@H](CSC(CC(=O)O)C(=O)O)C(=O)NCC(=O)O)C(=O)O` (stereo partly specified): 104%; `Cc1ccc(S(=O)(=O)NC(=O)NN2CC3CCCC3C2)cc1` (stereo unspecified): 113%.
The figure for `CC[C@H]1OC(=O)C[C@@H](O)[C@H](C)[C@@H](O[C@@H]2O[C@H](C)[C@@H](O)[C@H](N(C)C)[C@H]2O)[C@@H](CCN2C[C@H](C)C[C@H](C)C2)C[C@@H](C)C(=O)/C=C/C(C)=C/[C@@H]1CO[C@@H]1O[C@H](C)[C@@H](O)[C@@H](OC)[C@H]1OC` is 105%; for `Nc1ccccc1S(N)(=O)=O` it is 127%.
In the case of `O=c1c(O)cc([C@H]2Oc3cc(O)cc(O)c3C[C@H]2O)cc2c([C@H]3Oc4cc(O)cc(O)c4C[C@H]3O)cc(O)c(O)c12`, the synaptosome phagocytosis is 130%.
The figure for `Cc1nc(C)c(Cl)c(O)c1Cl` is 124%.
The figure for `CC(=O)O[C@H]1CC[C@]2(C)[C@H]3CC=C4[C@@H]5CC(C)(C)CC[C@]5(C)CC[C@@]4(C)[C@]3(C)CC[C@H]2C1(C)C` [beta-AMYRIN ACETATE] is 88.7%; for `C#C[C@]1(OC(C)=O)CC[C@H]2[C@@H]3CCC4=C[C@@H](OC(C)=O)CC[C@@H]4[C@H]3CC[C@@]21C` it is 104%.
